Measurements from PubChem BioAssay AID493014 (National Center for Advancing Translational Sciences (NCATS), 2011).
Some of the results follow. Further columns of the screen follow, without active or inactive calls. The list favours compounds with an active or inconclusive main result. Words in brackets tell the shape of the fitted curve; partial curves, single points and poor fits give uncertain potencies.

Assay: qHTS Assay to Find Inhibitors of Chronic Active B-Cell Receptor Signaling
Conditions: ABC-DLBCL IkBa-CBG/CBR reporter, luminescence ratio (green luciferase fused to IkBa over red control in TMD8 lymphoma cells), 4 h
In short: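 Doxycycline induced both beetle luciferases in TMD8 lymphoma cells; IKK-driven degradation limits the IkappaBalpha-fused green signal, while red luminescence normalises for cell number and nonspecific effects. Compounds tested up to 46 uM, 4 hrs.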

[1] = measured here: CBR red luminescence, cell number
[2] = measured here: IkBa-CBG green luminescence

Compound	AC50 [1]	AC50 [2]
Cc1ccc(CN(C)C(=O)CN2C(=O)NC3(CCCc4ccccc43)C2=O)c(C)c1 (stereo not given)	0.103 µM [rising, full curve, poor fit]	–
O=C(c1ccco1)n1nc(NCc2ccccc2)nc1NCc1ccccc1	29.1 µM [falling, single point]	–
CC(C)Cn1c2ccccc2c2cc(C(=O)O)ccc21	0.184 µM [falling, full curve, poor fit]	–
COc1ccc(CC(C)Nc2ccccc2F)cc1 (stereo not given)	35.5 µM [rising, single point]	–
CCc1c(-c2ccccc2)nc2sc3c(c2c1N)CCCC3	35.5 µM [falling, single point]	–
Oc1ccc(C2CNCc3sccc32)cc1O (stereo not given)	29.1 µM [falling, single point]	–
O=C1C(Nc2cccc(O)c2)=C(N2CCCCC2)C(=O)c2ccccc21	11.2 µM [falling, partial curve, poor fit]	–
COc1cc2ccccc2cc1C(=O)Nc1ccc(C)cc1	35.5 µM [falling, single point]	–
Cc1ccc(NC(=O)CN(c2ccc(Cl)cc2)S(=O)(=O)c2cc([N+](=O)[O-])ccc2Cl)c(C)c1	3.16 µM [falling, partial curve, poor fit]	–
CCCn1c(=O)[nH]c(=O)c2c1nc(-c1ccc(OC(F)F)cc1)n2CCN1CCOCC1	32.6 µM [rising, single point]	–
COC(=O)c1sccc1N/C=C(\C#N)S(=O)(=O)C(C)(C)C	0.1 µM [rising, full curve, poor fit]	–
Cn1c2c(c(=O)c3ccccc31)CCC(C)(C)O2	14.6 µM [rising, partial curve, poor fit]	–
CC(C)c1ccc(NC(=O)c2cc(S(=O)(=O)NCCc3ccccc3)ccc2F)cc1	2.51 µM [falling, full curve, poor fit]	–
O=C(CCCn1c(=O)c2ccccc2n(CC(=O)NCc2ccco2)c1=O)NCc1ccco1	2.59 µM [falling, single point]	–
CCn1c(SCc2ccccc2)nnc1-c1cccs1	29.1 µM [rising, single point]	–
O=C1Cc2cc(S(=O)(=O)Nc3cccc(C(F)(F)F)c3)cc3c2N1CCC3	0.501 µM [falling, full curve, poor fit]	–
COc1ccc(OC)c(NC(=O)c2cccnc2Sc2ccccc2)c1	16.4 µM [rising, partial curve, poor fit]	–
Cc1cc(C(=O)Nc2cccc(C(=O)O)c2)oc1C	1.46 µM [falling, full curve]	–
COc1ccc(CCNC(=O)c2cc3c(cc2Cl)N2CCCCCC2=NS3(=O)=O)cc1	29.1 µM [falling, single point]	–
COc1cccc(/C=N/Nc2nccnc2Cl)c1O	22.4 µM [falling, partial curve, poor fit]	–
COc1ccccc1Nc1nc(N)nc(CSc2nc(C)cc(C)n2)n1	12.6 µM [rising, partial curve]	10 µM [falling, partial curve, poor fit]

Compound	AC50 [1]	AC50 [2]
CCOC(=O)C1=C(CC)Nc2ccccc2N=C1NC(=O)Cn1cnc2ccccc2c1=O	0.366 µM [rising, full curve, poor fit]	–
COc1ccccc1NC(=O)C(=O)N/N=C(\C)CC(=O)Nc1ccc(OCc2ccccc2)cc1	2.51 µM [falling, full curve]	–
C=CCc1cc2c(oc(=O)c3ccccc32)c(C)c1O	35.5 µM [rising, single point]	–
Cc1csc(NC(=O)Nc2ccccc2[N+](=O)[O-])n1	11.2 µM [falling, partial curve, poor fit]	–
COc1ccc(NC(=O)CN(C)CC(=O)c2c(C)[nH]c3ccccc23)cc1	16.4 µM [falling, partial curve, poor fit]	–
Cc1c(C(=O)Nc2ccccc2F)sc2nc3n(c(=O)c12)CCC3	2.51 µM [falling, full curve, poor fit]	–
COc1cccc(NC(=O)CSc2nnc(-c3ccoc3C)n2CC2CCCO2)c1 (stereo not given)	35.5 µM [falling, single point]	–
Cc1nn(Cc2ccccc2)c(C)c1/C=N/NC(=O)c1ccccc1O	22.4 µM [falling, single point]	–
CCCN(CCC)S(=O)(=O)c1ccc(C(=O)N2CCCc3ccccc32)cc1	32.6 µM [falling, single point]	–
Cc1nn(C(=O)c2ccco2)c(C)c1Sc1ccc(Cl)cc1	5.8 µM [falling, full curve]	–
COc1ccc(N(C)S(=O)(=O)c2cccc(C(=O)NC3CCC(C)CC3)c2)cc1 (stereo not given)	1.26 µM [rising, partial curve]	–
O=C(Nc1ccc(Br)cc1)c1cc(S(=O)(=O)N2CCc3ccccc32)ccc1F	2.51 µM [falling, full curve]	–
C[C@H](CO)N1C[C@H](C)[C@@H](CN(C)C(=O)Nc2ccc(C(F)(F)F)cc2)Oc2ccc(NC(=O)C3CC3)cc2C1=O	29.1 µM [rising, single point]	–
COc1ccc(-n2c3c(cc(C(=O)NCC(=O)c4ccccc4)c2=O)C(=O)CC(C)(C)C3)cc1	1.26 µM [rising, full curve, poor fit]	–
COc1ccc(-c2nc(-c3ccccc3)no2)c(OC)c1	2.06 µM [falling, full curve]	–
FC(F)(F)c1cccc(-c2nc(-c3ccncc3)no2)c1	8.91 µM [rising, partial curve, poor fit]	–
CCn1c2ccccc2c2cc(CNCc3ccc(OC)cc3OC)ccc21	22.4 µM [falling, single point]	–
COc1cc(OC)cc(C(=O)NC(=S)Nc2cccnc2)c1	2.82 µM [falling, full curve]	–
CCn1c(C(C)NC(=O)c2ccc(Cl)cc2)n[nH]c1=S (stereo not given)	7.94 µM [rising, partial curve, poor fit]	–
COc1ccc2nc(NCCCNC(=O)c3cc(OC)c(OC)c(OC)c3)c(C#N)cc2c1	15.8 µM [rising, partial curve, poor fit]	–
O=C(N/N=C/C(Br)=C/c1ccccc1)c1cnccn1	31.6 µM [falling, single point]	–

Compound	AC50 [1]	AC50 [2]
CCCCOC(=O)c1ccc(NC(=S)NC(=O)c2c(Cl)cnn2C)cc1	6.31 µM [falling, partial curve, poor fit]	–
Cc1ccc(Cn2ncc3c(N4CCN(c5ccccc5C)CC4)ncnc32)cc1	6.51 µM [falling, single point]	6.51 µM [rising, partial curve, poor fit]
CC(Nc1[nH]c(=O)n(C)c(=O)c1N=O)c1ccccc1 (stereo not given)	3.98 µM [falling, partial curve, poor fit]	–
COc1cccc(C(=O)NNC(=S)NC2CCCCC2)c1	0.651 µM [falling, partial curve, poor fit]	–
CC(=O)Nc1nnc(/C=C/c2cccc([N+](=O)[O-])c2)s1	0.0891 µM [rising, full curve, poor fit]	–
COc1ccc(C(=O)N(CN2CCCC2=O)c2ccc(C)cc2)cc1	14.1 µM [falling, single point]	–
NCc1cc2c3c(c1)CCCN3CCC2	2.24 µM [rising, partial curve, poor fit]	–
O=C(COc1cccnc1[N+](=O)[O-])Nc1ccc2c(c1)CCC2	2.82 µM [rising, full curve]	–
C=CCC[C@@H](Cc1ccc(F)cc1)C(=O)OC[C@@H](NC(=O)[C@@H](CC=C)CC(=O)N(CCO)Cc1ccccc1)c1ccccc1	20.6 µM [falling, single point]	–
CC1CCCC(NC(=O)COC(=O)c2ccccc2[N+](=O)[O-])C1C (stereo not given)	25.1 µM [falling, single point]	–
CCCCS/C(=C(/C#N)C(N)=O)c1cc2c([nH]1)CCCC2	12.6 µM [falling, partial curve, poor fit]	–
COc1ccc(NC(=O)NC2CCCCC2C)cc1 (stereo not given)	12.6 µM [falling, partial curve, poor fit]	–
COc1ccc(-c2ccc3oc(-c4ccsc4)cc(=O)c3c2)cn1	1.3 µM [rising, partial curve]	–
CCCN1CCc2c(sc(NC(=S)NC(=O)c3ccccc3)c2C#N)C1	3.16 µM [falling, partial curve]	–
CCC(=O)Nc1ccc(NC(=O)c2ccccn2)cn1	8.2 µM [falling, partial curve]	–
O=S(=O)(NCC(c1ccco1)N1CCN(c2ccc(F)cc2)CC1)c1cc(F)ccc1F (stereo not given)	0.355 µM [falling, full curve]	–
COc1ccc(CN(CCC(c2ccccc2)c2ccco2)C(=O)c2ccco2)cc1 (stereo not given)	16.4 µM [falling, single point]	–
CN(C)S(=O)(=O)c1cccc(C(=O)OCC(=O)Nc2sccc2C(N)=O)c1	7.94 µM [falling, partial curve]	–
CCOc1c(N2CCCCC2)c(=O)c1=O	0.794 µM [rising, full curve, poor fit]	–
COc1ccc(-c2cc(C(=O)Nc3c(C)nn(Cc4ccccc4)c3C)no2)cc1	16.4 µM [rising, partial curve]	–
COc1cccc(NC(=O)CN(C)C(=O)Cc2ccc3c(c2)CCC3)c1	25.9 µM [rising, single point]	–

In the list so far, 8 have a thiophene ring, fused or not.
Compound	AC50 [1]	AC50 [2]
CCc1c(-c2ccccc2)nc2sc3c(c2c1N)CCCC3	35.5 µM [falling, single point]	–
Oc1ccc(C2CNCc3sccc32)cc1O (stereo not given)	29.1 µM [falling, single point]	–
COC(=O)c1sccc1N/C=C(\C#N)S(=O)(=O)C(C)(C)C	0.1 µM [rising, full curve, poor fit]	–
CCn1c(SCc2ccccc2)nnc1-c1cccs1	29.1 µM [rising, single point]	–
Cc1c(C(=O)Nc2ccccc2F)sc2nc3n(c(=O)c12)CCC3	2.51 µM [falling, full curve, poor fit]	–
COc1ccc(-c2ccc3oc(-c4ccsc4)cc(=O)c3c2)cn1	1.3 µM [rising, partial curve]	–
CCCN1CCc2c(sc(NC(=S)NC(=O)c3ccccc3)c2C#N)C1	3.16 µM [falling, partial curve]	–
CN(C)S(=O)(=O)c1cccc(C(=O)OCC(=O)Nc2sccc2C(N)=O)c1	7.94 µM [falling, partial curve]	–

Some of the entries above in a different format:
Compound | AC50 [1] | AC50 [2]
COc1ccc(C(=O)N(CN2CCCC2=O)c2ccc(C)cc2)cc1 | 14.1 µM [falling, single point] | –
NCc1cc2c3c(c1)CCCN3CCC2 | 2.24 µM [rising, partial curve, poor fit] | –
